Assay results taken from PubChem BioAssay AID602254 (Broad Institute, 2012).
Among all 1,000 compounds or so, fewer than 10 were called active.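 The calls were made as follows: active = fitted half-maximal concentration no higher than twice the top valid tested dose, with signal falling; inconclusive = flat curve with 30 to 70% inhibition, or poor fit; inactive = the rest.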 The list shows a part of the results. Entries with a potency or affinity are not part of this list.

Each compound was assayed against Golgi-associated PDZ and coiled-coil motif-containing protein (Homo sapiens) (UniProt Q9HD26) (assay: CAL PDZ domain peptide-binding inhibitors, dose response, biochemical, fluorescence polarization, untagged CAL PDZ, cherry-pick, set 2 (AID 602254;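 also: 0% = DMSO neutral control and -100% = unlabeled peptide PRC23 positive control; more negative means stronger blocking of peptide binding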)). Conditions: Purified CAL PDZ, TMR peptide fluorescence polarization; at 60 µM (top of the series).

Activity change, negative = inhibition, inactive:
COc1ccccc1CNC(=O)C1CCN(S(=O)(=O)c2ccc3c(c2)OCCO3)CC1 0.61%
COC(=O)c1cc2ccsc2n1Cc1cccc(F)c1 1.78%
CCOC(=O)CCn1c(=S)n(CCC(=O)OCC)c2ccccc21 0.593%
CC(=O)c1cccc(NC(=O)C(C)OC(=O)CCn2c(C)csc2=O)c1 (stereo not given) -0.058%
CCC(C)c1ccccc1NC(=O)COC(=O)CCc1cc(OC)c(OC)c(OC)c1 (stereo not given) 1.57%
O=C(COC(=O)c1ccc(NC(=O)C2CC=CCC2C(=O)O)cc1)c1ccccc1 (stereo not given) 4.39%
COc1cccc(NC(=O)CN(C)CC(=O)Nc2ccc(Br)cc2)c1 1.43%
COc1ccc(C(CNC(=O)COc2c(C)cc(C)cc2C)N2CCOCC2)cc1 (stereo not given) 0.142%
CCNC(=S)NNC(=O)c1ccncc1 -1.57%
O=C(Nc1ccc(S(=O)(=O)N2CCCC2)cc1)c1ccc(OCC2CCCO2)cc1 (stereo not given) 3.08%
CCc1ccc(N2C(=O)CC(N3CCN(Cc4ccc5c(c4)OCO5)CC3)C2=O)cc1 (stereo not given) -0.604%
O=C(COc1ccc(-n2cnnn2)cc1)NC(=O)NCc1ccccc1 0.033%
COc1ccccc1CNC(=O)COC(=O)CC1CC2CCC1C2 (stereo not given) 5.21%
CC(C)(C)c1ccc(C(=O)NNc2ncccc2-n2cccc2)cc1 -0.412%
CC(=O)c1ccc(OCc2cc(C(=O)NCCc3ccc(Cl)cc3)no2)cc1 -0.074%
COc1cccc(/C=C2\SC(=S)N(CCC(=O)NCCc3ccc(O)cc3)C2=O)c1 0.355%
O=S1(=O)c2c(F)cccc2OC(COCc2ccccc2)CN1C1CCCC1 (stereo not given) 9.91%
CCOC(=O)c1ccc(NC(=O)C2CCCO2)cc1 (stereo not given) 5.12%
CCOC(=O)c1ccc(NC(=S)NNC(=O)c2cc(-c3cccnc3)nc3ccccc23)cc1 0.906%
Cc1cn(S(=O)(=O)c2ccc(Cl)cc2)c(C)n1 1.3%
O=C(COc1ccc(S(=O)(=O)Nc2ccc(Cl)cc2)cc1)N1CCOCC1 0.834%
CCN(CCO)Cc1csc2ccc(C(C)(C)C)cc12 -2.52%
CN(C)S(=O)(=O)c1cccc(NC(=O)Cc2ccsc2)c1 -2.05%
CC[C@@H]1CCCCc2ccccc2[C@H](C(=O)C[C@H](O)CC(C)=O)OC1=O -1.36%
O=C(NNC(=O)c1ccc(NC(=O)c2ccccc2)cc1)c1ccc(F)cc1 3.24%
Cc1ccc(CCNC(=O)C2CCC(=O)N(Cc3cccc(F)c3)C2)cc1 (stereo not given) -0.437%
O=C(CN1C(=O)NC(c2ccc(F)cc2)C1=O)NC1CCCCC1 (stereo not given) 1.55%
CCOCCCNC(=O)N[C@@H](C)C(=O)OC 0.129%
O=C(O)CC(CNC(=O)C1CCCN1C(=O)OCc1ccccc1)c1ccccc1 (stereo not given) -2.42%
COc1ccccc1CC(=O)NCc1nn(-c2ccccc2)nc1C -0.368%
CCOc1cc(C)c(Cl)cc1S(=O)(=O)N(CC)CC 0.628%
COc1ccc(/C=N/NC(=O)CNC(=O)c2ccncc2)cc1OC 1.66%
Cn1nc(C(=O)Nc2nc(-c3ccccn3)cs2)c2ccccc2c1=O 1.73%
CCc1nnc(NS(=O)(=O)c2ccc(N3C(=O)c4ccccc4C3=O)cc2)s1 1.69%
CC(=O)c1ccc(N2CCN(S(=O)(=O)c3c(C(=O)N4CCCC4)c(C)n(C)c3C)CC2)cc1 -0.151%
O=C(NCCCN1CCCC1=O)c1cc2c(s1)CCCCC2 1.69%
Cc1nc(CN(C)C(=O)C2CCC(=O)N(CCc3cccc(F)c3)C2)cs1 (stereo not given) 1.18%
CC(=O)n1nc(-c2ccccc2)nc1NCc1cccs1 1.06%
Cc1nc(-c2ccc(NC(=O)Cc3ccccc3)cc2)cs1 -1.46%
CCC(CO)NCc1ccc(OC2CCCC2)cc1 (stereo not given) -0.802%
CSc1ccc(CN(C)C(=O)CNC(=O)CNS(=O)(=O)c2ccc(C)c(C)c2)cc1 -3.57%
Cc1ccc(NC(=O)c2cccs2)cc1NC(=O)c1cccnc1 -4.15%
Nc1nc(C2CCCN2S(=O)(=O)c2ccc(Cl)cc2)cs1 (stereo not given) -0.705%
O=C(CNc1ccccc1F)N/N=C/C1CC=CCC1 (stereo not given) -1.68%
CCNC(=S)N(CCc1ccc(OC)c(OC)c1)Cc1cc2cc(OC)ccc2[nH]c1=O 2.69%
O=C(NC1CCCC1)C1CC(=O)N(c2ccc(F)cc2)C1 (stereo not given) -3.11%
Cc1cc(Br)cc(Cl)c1OC(=O)c1ccncc1 3.85%
CC(=O)c1ccc(S(=O)(=O)Nc2ccc(Cl)c(S(=O)(=O)N3CCCC3)c2)cc1 -0.859%
O=C(NCCCN1CCOCC1)c1ccc2c(c1)N(Cc1ccccc1)CCS2 7.62%
COc1ccc(Cl)cc1C(=O)NNC(=O)CNC(=O)c1ccc(C)s1 -0.888%
COc1ccc(S(=O)(=O)N2CCCCCC2)cc1NC(C)C(=O)Nc1ccc(NC(C)=O)cc1 (stereo not given) 0.725%
COc1ccccc1OCC(=O)NCCS(=O)(=O)N1CCN(c2ccc(F)cc2)CC1 0.117%
O=C(NNC(=O)c1cccc(C(F)(F)F)c1)c1ccc(-n2cnnn2)cc1 1.55%
CCC/C=N/NC(=O)c1cccc(Br)c1 -10.6%
Cc1cccc(C)c1NC(=O)Cn1nnnc1N -0.59%
CCCNC(=O)C1CCC(CNS(=O)(=O)c2ccc3c(c2)CC(C)N3C(C)=O)CC1 (stereo not given) 0.309%
Cc1ccc(NC(=O)CCn2c(=O)oc3ccccc32)c(C)c1 -0.153%
CCCCNC(=O)CN1C(=O)c2cccc(N)c2C1=O 0.983%
COC(=O)C1CCN(C(=O)C2CCC(=O)N(CCCc3ccccc3)C2)CC1 (stereo not given) -2.7%
Cc1ccccc1C(=O)OC(C)CN1CCN(C)CC1 (stereo not given) -8.78%

In the list so far, two contain a COOH group.
Activity change, negative = inhibition, inactive:
O=C(COC(=O)c1ccc(NC(=O)C2CC=CCC2C(=O)O)cc1)c1ccccc1 (stereo not given) 4.39%
O=C(O)CC(CNC(=O)C1CCCN1C(=O)OCc1ccccc1)c1ccccc1 (stereo not given) -2.42%
